At least one compound was matched to its structure with a doubt left.
Columns and labels:
VSC concentration = experiment: in vitro Halimeter determination of VSC concentration in saliva fermentation; assay type: cell-based, halitosis subjects (saliva); conditions: compared with CK group, anaerobic cultivation 10 hours
Protocol: Fresh saliva was collected from 10 halitosis subjects (Halimeter index >120). Subjects were required not to consume any food or drink for 2 hours before donating saliva. Saliva was directly spat into a saliva collection tube, 5 ml per person, and mixed. The mixture was centrifuged at 4500 rpm for 10 minutes, and the supernatant was collected, aliquoted, and stored at -80°C for subsequent experimental studies.
Lysate observation group: In a 10 ml sample vial, 100 µl of saliva was added first, followed by the separate addition of ET-22 viable bacteria (1.0×10^9 CFU/ml), ET-22 heat-inactivated bacterial cells (obtained by inactivating viable bacteria at 1.0×10^9 CFU/ml), and lysate (obtained by inactivating and then filtering viable bacteria at 1.0×10^9 CFU/ml), each at 100µl. Then, 1.8 ml of SHI medium was added. After filling with nitrogen, anaerobic cultivation was performed for 10 hours. Then, the obtained culture was placed in a 60°C water bath for 30-min incubation. VSC concentration was measured using the in vitro Halimeter method.
Group of two nucleotides: In a 10 ml sample vial, 100 µl of saliva was added first, followed by the separate addition of ET-22 viable bacteria (1.0×10^9 CFU/ml), ET-22 heat-inactivated bacterial cells (obtained by inactivating viable bacteria at 1.0×10^9 CFU/ml), NAD, and FAD (500 µg/ml, 100 µg/ml, 10 µg/ml), each at 100µl. Then, 1.8 ml of SHI medium was added. After filling with nitrogen, anaerobic cultivation was performed for 10 hours. Then, the obtained culture was placed in a 60°C water bath for 30-min incubation. VSC concentration was measured using the in vitro Halimeter method.
Group of five organic acids: In a 10 ml sample vial, 100 µl of saliva was added first, followed by the separate addition of ET-22 viable bacteria (1.0×10^9 CFU/ml), ET-22 heat-inactivated bacterial cells (obtained by heat-inactivating viable bacteria at 1.0×10^9 CFU/ml), and five organic acid components (500 µg/ml, 100 µg/ml, 10 µg/ml), each at 100µl. Then, 1.8 ml of SHI medium was added. […] VSC concentration was measured using the in vitro Halimeter method. […]

biofilm = experiment: scanning electron microscopy (SEM) of biofilm on HA disc; assay type: cell-based, halitosis subjects (saliva); conditions: pure components 100 µg/ml, others from 1.0×10^9 CFU/ml, 37°C 10 hours
Protocol: (§1) Lysate group: A hydroxyapatite (HA) disc was placed in a 96-well plate. 10 µl of saliva was added to the 96-well plate, followed by separate addition of ET-22 viable bacteria (1.0×10^9 CFU/ml), ET-22 heat-inactivated bacterial cells (obtained by inactivating viable bacteria at 1.0×10^9 CFU/ml), and lysate (obtained by inactivating and filtering viable bacteria at 1.0×10^9 CFU/ml), each at 10 µl. Then, 80 µl of SHI medium was added. The 96-well plate was placed in an anaerobic box and cultured anaerobically at 37°C for 10 hours.
as §1, with “NAD” for “Lysate”, “heat-inactivating” for “inactivating”, “NAD (100 µg/ml),” for “lysate (obtained by inactivating and filtering viable bacteria at 1.0×10^9 CFU/ml),”
2-hydroxy-3-phenylpropionic acid group: A hydroxyapatite (HA) disc was placed in a 96-well plate. 10 µl of saliva was added to the 96-well plate, followed by separate addition of ET-22 viable bacteria (1.0×10^9 CFU/ml), ET-22 heat-inactivated bacterial cells (obtained by heat-inactivating viable bacteria at 1.0×10^9 CFU/ml), and 2-hydroxy-3-phenylpropionic acid (100 µg/ml), each at 10 µl. […]

For `NC(=O)c1ccc[n+]([C@@H]2O[C@H](COP(=O)([O-])OP(=O)(O)OC[C@H]3O[C@@H](n4cnc5c(N)ncnc54)[C@H](O)[C@@H]3O)[C@@H](O)[C@H]2O)c1` [NAD, Nicotinamide adenine dinucleotide (NAD)], the VSC concentration (VSC concentration; high concentration (500 µg/ml)) was “significantly lower than that in the CK group”, the VSC concentration (VSC concentration; low concentration (10 µg/ml)) was “no significant change” and the VSC concentration (VSC concentration; medium concentration (100 µg/ml)) was “significantly lower than that in the CK group”. The “biofilm structure (SEM observation)” value (biofilm) was “a large number of bacterial cell layers but a relatively low bacterial count”.
